Experimental findings from publication PMC11640418 are described below.

By UniProt entry, the sequences of proteins in these tests, tags left out. Where a name states a change or a piece, a line headed by the entry shows the natural chain unless it says otherwise.
UniProt Q0ZGT2: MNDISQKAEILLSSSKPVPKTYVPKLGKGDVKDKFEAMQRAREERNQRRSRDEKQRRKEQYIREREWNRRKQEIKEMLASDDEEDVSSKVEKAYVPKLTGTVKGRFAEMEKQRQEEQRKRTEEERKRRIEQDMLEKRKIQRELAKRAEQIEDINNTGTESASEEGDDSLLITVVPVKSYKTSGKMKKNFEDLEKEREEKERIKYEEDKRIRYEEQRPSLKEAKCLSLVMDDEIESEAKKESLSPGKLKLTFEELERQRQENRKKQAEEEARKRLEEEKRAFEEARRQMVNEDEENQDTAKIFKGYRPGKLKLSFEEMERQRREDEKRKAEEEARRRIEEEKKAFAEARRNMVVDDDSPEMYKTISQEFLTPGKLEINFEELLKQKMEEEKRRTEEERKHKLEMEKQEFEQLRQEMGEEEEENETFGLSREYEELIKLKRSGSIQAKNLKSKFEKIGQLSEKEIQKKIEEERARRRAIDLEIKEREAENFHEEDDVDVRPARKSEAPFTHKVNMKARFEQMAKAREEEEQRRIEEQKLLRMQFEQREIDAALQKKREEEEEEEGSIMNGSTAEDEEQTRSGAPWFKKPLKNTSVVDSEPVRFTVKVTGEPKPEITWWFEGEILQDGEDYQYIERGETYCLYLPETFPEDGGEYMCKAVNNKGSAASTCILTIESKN

The target of assay [1] is His-tagged full-length human nexilin (human) (UniProt Q0ZGT2). The assay can be described thus: pull-down; His-nexilin bound to Ni-NTA resin; GST-nexilin variants as bacterial lysate, 2 h, 4 °C, PD buffer (50 mM NaCl, 10 mM Tris/HCl pH 7.5, 0.1% Triton X-100) with 20 mM imidazole; GST blot; only the target purified.
The target is the same in assay [2]. The assay can be described thus: pull-down; His-nexilin bound to Ni-NTA; lysates of HEK-293 cells overexpressing Flag-tagged nexilin variants; Flag and actin blots; only the target purified.

These are yes or no findings as the source states them, for the method shown. In cells and extracts the contact can be indirect. Some results given as binding are weak or reduced against the parent protein; the word gives no strength.

As for “GST-tagged full-length human nexilin (from UniProt Q0ZGT2-1 1-675)”, the binding entry in assay [1] is recorded as “binds”.

Turning to “Flag-tagged full-length human nexilin (from UniProt Q0ZGT2-1 1-675)”, the binding entry in assay [2] was “binds”.
